These results are taken from patent US10059723B2 (BIOMARIN PHARMACEUTICAL INC., priority 2011, dated 2018).

The experiment relates to C57BL/6J male mice. The experiment can be described thus: Long term memory for object recognition. The class given is in vivo. The note with it: s.c. 3, 10, 30 mg/kg. The procedure:
C57BL/6J male mice were handled 1-2 min for 5 days and were habituated to the experimental apparatus 5 min a day for 4 consecutive days in the absence of objects. […] 24-h later mice were tested for memory retention (5 min) using the object recognition memory task (ORM), in which a familiar object was replaced with a novel one. All training and testing trials were videotaped and analyzed by individuals blind to the treatment condition and the genotype of subjects. A mouse was scored as exploring an object when its head was oriented toward the object within a distance of 1 cm or when the nose was touching the object. The relative exploration time was recorded and expressed by a discrimination index [DI=(tnovel−tfamiliar)/(tnovel+tfamiliar)×100].

With `Cc1ccc(C(=O)NCCCCCC(=O)Nc2ccccc2N)cc1` [RGFP 109], the “dose dependence of the effect on long-term memory” value is reported as “Dose dependent effects”.
